Assay results: the supplement of paper PMC6411743
± gives the standard deviation of the averaged measurements. The list shows a part of the results.

Chains of the proteins cited; added tags and fusions are not shown. Lines headed by an entry give the natural chain unless they say otherwise; changes in a name come on top.
UniProt P45983: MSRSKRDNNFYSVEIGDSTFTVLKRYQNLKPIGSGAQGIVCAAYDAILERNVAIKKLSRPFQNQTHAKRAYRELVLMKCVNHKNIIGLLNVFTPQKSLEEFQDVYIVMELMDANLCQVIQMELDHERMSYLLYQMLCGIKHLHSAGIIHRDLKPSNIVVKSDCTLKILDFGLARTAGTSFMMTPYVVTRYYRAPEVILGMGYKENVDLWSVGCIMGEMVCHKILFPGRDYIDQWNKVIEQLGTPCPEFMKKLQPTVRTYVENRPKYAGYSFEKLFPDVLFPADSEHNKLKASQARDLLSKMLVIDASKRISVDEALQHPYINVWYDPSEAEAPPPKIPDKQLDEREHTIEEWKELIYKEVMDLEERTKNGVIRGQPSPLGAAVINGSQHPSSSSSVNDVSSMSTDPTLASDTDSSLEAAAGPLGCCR
UniProt P48723: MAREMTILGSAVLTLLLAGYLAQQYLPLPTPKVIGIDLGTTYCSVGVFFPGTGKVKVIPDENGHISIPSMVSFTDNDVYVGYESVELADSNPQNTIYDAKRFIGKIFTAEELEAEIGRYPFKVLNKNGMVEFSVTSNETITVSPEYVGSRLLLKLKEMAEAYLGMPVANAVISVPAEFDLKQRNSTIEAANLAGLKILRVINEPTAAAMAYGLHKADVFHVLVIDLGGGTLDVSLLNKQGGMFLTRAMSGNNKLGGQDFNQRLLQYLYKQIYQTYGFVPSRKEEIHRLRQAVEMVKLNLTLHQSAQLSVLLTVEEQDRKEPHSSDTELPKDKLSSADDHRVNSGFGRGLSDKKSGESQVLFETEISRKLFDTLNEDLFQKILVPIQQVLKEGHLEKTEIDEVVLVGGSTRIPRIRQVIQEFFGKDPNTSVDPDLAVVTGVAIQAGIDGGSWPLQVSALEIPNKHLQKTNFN
UniProt P30048: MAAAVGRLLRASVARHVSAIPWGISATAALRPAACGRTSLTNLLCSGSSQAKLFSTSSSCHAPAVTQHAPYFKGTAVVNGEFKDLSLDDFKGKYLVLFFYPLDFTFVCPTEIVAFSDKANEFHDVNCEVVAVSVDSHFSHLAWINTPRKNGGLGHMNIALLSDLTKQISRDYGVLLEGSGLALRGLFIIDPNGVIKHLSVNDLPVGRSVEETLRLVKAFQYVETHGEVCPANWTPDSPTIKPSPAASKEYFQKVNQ
UniProt P30049: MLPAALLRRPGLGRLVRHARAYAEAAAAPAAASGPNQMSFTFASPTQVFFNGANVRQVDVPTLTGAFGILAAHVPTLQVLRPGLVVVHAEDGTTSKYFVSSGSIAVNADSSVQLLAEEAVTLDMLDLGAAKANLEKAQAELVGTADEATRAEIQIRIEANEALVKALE
UniProt P29350: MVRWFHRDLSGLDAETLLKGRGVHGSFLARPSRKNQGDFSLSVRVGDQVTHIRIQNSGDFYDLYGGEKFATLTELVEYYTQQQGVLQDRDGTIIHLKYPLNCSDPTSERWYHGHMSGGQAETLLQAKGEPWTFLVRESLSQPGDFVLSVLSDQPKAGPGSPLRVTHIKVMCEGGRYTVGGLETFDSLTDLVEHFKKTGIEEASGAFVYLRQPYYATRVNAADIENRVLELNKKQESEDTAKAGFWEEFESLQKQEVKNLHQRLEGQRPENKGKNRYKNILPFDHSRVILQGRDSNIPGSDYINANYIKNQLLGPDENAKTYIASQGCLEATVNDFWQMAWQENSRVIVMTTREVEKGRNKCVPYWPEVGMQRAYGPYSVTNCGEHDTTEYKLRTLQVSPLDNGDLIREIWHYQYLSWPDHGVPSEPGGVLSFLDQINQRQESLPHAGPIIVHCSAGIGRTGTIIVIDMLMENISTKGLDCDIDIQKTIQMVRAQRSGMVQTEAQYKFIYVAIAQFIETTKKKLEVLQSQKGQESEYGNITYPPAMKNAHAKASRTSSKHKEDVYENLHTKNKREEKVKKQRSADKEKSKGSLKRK
UniProt P46063: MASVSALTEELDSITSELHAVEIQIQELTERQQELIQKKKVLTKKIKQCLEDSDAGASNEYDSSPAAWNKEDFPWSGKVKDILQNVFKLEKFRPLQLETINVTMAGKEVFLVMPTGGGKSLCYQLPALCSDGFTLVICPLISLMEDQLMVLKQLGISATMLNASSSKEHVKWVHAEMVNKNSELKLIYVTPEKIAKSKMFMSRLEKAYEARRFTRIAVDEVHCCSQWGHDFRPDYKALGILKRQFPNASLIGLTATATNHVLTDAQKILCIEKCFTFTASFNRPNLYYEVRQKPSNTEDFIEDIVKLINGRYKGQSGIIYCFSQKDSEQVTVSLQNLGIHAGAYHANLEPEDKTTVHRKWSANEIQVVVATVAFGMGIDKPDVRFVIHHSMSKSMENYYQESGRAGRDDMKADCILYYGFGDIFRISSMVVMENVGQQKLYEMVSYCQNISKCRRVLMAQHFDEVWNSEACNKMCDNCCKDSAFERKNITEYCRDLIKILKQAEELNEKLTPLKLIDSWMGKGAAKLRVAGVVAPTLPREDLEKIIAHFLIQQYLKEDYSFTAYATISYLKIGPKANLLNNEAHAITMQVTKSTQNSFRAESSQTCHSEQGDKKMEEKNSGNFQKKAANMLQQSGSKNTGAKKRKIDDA
UniProt P50213: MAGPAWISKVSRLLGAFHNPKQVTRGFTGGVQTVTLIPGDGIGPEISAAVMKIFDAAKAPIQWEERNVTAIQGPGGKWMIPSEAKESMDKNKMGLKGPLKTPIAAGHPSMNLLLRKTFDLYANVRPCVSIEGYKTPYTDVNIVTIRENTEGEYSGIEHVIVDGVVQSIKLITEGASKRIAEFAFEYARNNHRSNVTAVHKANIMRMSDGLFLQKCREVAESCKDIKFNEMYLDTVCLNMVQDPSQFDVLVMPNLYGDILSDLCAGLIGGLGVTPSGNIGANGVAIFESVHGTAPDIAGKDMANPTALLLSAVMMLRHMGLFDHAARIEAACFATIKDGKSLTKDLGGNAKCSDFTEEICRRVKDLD
UniProt P46060: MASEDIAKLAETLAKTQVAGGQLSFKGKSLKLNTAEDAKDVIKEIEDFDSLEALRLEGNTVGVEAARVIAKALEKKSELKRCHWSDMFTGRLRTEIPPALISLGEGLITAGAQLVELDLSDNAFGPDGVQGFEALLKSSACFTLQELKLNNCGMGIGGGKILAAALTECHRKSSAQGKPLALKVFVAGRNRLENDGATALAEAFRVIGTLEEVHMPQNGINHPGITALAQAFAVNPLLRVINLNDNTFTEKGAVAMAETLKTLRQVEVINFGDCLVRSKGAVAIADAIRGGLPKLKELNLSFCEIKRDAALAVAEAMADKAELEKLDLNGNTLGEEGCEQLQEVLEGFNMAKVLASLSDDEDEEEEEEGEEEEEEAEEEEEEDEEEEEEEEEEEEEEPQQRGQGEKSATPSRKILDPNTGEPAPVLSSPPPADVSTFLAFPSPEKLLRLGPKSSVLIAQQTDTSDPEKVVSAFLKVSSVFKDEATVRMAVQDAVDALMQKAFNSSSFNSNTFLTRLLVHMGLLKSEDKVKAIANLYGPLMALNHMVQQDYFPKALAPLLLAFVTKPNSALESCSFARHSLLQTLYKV
UniProt P31146: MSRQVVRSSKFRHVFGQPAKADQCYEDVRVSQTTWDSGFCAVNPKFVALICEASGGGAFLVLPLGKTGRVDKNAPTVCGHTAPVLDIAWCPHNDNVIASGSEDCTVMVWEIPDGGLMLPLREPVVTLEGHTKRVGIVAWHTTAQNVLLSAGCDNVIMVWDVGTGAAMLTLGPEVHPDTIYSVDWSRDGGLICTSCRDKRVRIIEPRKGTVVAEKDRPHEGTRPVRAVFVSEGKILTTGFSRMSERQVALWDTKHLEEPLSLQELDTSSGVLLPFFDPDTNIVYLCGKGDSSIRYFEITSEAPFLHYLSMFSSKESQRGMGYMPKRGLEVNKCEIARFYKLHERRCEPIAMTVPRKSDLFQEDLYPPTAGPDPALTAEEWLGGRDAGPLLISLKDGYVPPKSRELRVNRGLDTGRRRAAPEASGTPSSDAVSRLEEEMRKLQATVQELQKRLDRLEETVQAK
UniProt P31153, whole entry, looked up: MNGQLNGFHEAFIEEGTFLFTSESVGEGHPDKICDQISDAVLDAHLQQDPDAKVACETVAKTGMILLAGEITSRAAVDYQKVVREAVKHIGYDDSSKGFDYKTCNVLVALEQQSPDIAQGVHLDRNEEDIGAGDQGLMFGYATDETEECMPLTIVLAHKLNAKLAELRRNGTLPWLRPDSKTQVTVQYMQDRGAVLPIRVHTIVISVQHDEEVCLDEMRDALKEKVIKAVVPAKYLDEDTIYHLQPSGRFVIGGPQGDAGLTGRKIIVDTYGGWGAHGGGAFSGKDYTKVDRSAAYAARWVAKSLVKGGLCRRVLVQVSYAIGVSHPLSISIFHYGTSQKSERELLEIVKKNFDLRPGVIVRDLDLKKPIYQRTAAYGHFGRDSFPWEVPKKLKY
UniProt P31150: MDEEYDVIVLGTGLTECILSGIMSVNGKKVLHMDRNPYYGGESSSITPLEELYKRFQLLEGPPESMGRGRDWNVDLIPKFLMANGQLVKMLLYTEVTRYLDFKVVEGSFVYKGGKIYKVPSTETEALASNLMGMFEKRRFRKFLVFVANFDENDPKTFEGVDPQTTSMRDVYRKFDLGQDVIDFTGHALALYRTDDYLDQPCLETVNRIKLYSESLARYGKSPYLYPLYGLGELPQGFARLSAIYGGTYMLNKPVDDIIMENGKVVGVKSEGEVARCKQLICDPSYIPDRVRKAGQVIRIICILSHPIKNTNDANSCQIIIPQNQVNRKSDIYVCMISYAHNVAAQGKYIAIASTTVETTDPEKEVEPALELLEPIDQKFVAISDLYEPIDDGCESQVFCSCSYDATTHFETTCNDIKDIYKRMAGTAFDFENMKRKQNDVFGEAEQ
UniProt P34897: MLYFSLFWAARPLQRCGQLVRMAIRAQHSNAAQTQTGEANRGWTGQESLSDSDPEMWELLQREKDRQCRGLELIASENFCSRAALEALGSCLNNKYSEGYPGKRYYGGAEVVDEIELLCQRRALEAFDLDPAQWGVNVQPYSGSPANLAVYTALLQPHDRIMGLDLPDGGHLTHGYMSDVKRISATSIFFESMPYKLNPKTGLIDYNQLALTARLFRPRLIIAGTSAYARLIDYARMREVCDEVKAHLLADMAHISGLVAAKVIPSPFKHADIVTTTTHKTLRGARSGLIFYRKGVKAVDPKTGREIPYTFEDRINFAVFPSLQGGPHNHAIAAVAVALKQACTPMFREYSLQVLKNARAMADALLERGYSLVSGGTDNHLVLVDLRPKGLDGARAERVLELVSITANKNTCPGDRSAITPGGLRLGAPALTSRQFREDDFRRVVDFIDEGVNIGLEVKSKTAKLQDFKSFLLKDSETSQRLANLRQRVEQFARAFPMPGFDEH
UniProt P30084: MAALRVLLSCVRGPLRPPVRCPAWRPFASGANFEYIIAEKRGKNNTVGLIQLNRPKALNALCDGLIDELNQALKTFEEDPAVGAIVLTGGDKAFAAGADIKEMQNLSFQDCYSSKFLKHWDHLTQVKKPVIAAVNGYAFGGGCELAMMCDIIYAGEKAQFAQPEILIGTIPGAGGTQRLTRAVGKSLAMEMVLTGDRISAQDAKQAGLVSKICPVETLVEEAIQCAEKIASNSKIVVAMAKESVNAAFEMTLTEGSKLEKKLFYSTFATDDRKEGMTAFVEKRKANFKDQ
UniProt P33991: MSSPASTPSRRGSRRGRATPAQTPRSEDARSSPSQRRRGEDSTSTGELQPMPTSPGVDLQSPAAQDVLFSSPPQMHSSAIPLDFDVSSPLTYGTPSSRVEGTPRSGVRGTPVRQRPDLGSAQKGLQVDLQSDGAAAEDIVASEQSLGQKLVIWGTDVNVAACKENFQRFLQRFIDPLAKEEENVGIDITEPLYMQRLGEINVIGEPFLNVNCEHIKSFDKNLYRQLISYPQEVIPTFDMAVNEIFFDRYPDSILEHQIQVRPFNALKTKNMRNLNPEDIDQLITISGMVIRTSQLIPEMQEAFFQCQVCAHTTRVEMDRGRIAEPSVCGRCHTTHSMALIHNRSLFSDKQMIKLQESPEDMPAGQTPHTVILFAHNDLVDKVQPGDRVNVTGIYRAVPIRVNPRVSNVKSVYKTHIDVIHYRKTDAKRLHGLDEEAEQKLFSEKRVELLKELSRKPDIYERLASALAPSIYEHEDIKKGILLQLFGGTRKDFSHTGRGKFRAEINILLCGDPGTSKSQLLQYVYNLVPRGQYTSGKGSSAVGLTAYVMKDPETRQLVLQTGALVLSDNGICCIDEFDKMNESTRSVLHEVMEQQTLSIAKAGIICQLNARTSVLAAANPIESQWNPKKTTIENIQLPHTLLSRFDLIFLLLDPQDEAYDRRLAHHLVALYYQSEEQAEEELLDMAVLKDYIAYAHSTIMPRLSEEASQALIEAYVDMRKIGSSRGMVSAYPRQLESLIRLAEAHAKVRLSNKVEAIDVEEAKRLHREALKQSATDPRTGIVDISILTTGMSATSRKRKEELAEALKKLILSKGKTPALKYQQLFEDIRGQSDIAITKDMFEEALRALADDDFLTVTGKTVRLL

Compound: Nc1nc2c(ncn2[C@@H]2O[C@H](COP(=O)(O)OP(=O)(O)OP(=O)(O)O)[C@@H](O)[C@H]2O)c(=O)[nH]1 [guanosine triphosphate]
Test: NP40-soluble protein abundance relative to vehicle (solubility fold change) (ratio); higher = more soluble protein in presence of GTP
Outline: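 Jurkat crude lysate prepared with a Dounce homogeniser was treated at eight concentrations spanning 0.1 to 10 mM, 10 min at room temperature then 3 min at 37 °C. Solubilisation with 0.8% NP40 and benzonase and ultracentrifugation preceded TMT labelling of the supernatant for LC-MS/MS. Fold change against the detergent-processed vehicle was determined per replicate from vsn-normalised intensities, across three independent experiments.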

Row | Target | NP40-soluble protein abundance (concentration: 0.1mM) | NP40-soluble protein abundance (concentration: 0.5mM) | NP40-soluble protein abundance (concentration: 1mM) | NP40-soluble protein abundance (concentration: 2mM) | NP40-soluble protein abundance (concentration: 4mM) | NP40-soluble protein abundance (concentration: 6mM) | NP40-soluble protein abundance (concentration: 8mM) | NP40-soluble protein abundance (concentration: 10mM)
1 | CDC34 (UniProt P49427) | 1.69 ± 0.2 | 1.07 ± 0.037 | 1.79 ± 0.077 | 1.15 ± 0.11 | 1.16 ± 0.092 | 1.12 ± 0.1 | 1.01 ± 0.078 | 1.06 ± 0.084
2 | SPR (UniProt P35270) | 0.974 ± 0.075 | 0.956 ± 0.06 | 0.922 ± 0.051 | 0.912 ± 0.04 | 0.938 ± 0.068 | 0.862 ± 0.035 | 0.897 ± 0.055 | 0.893 ± 0.06
3 | MAGEA9 (UniProt P43362) | 1.19 ± 0.096 | 1.04 ± 0.13 | 1.17 ± 0.048 | 0.971 ± 0.094 | 1.14 ± 0.14 | 1.07 ± 0.041 | 1.02 ± 0.22 | 1.03 ± 0.019
4 | UniProt P45983 and related entries | 0.996 ± 0.083 | 1 ± 0.043 | 0.987 ± 0.08 | 0.947 ± 0.059 | 0.907 ± 0.1 | 0.914 ± 0.1 | 0.964 ± 0.075 | 0.879 ± 0.064
5 | HSPA13 (UniProt P48723) | 1.04 ± 0.088 | 1.02 ± 0.1 | 0.987 ± 0.043 | 1.01 ± 0.04 | 1.02 ± 0.067 | 0.973 ± 0.061 | 0.996 ± 0.079 | 0.956 ± 0.051
6 | UniProt P41227-2 | 0.971 ± 0.12 | 0.979 ± 0.079 | 0.973 ± 0.11 | 0.947 ± 0.079 | 0.97 ± 0.099 | 0.953 ± 0.08 | 0.959 ± 0.1 | 0.969 ± 0.097
7 | UniProt P30048 and related entries | 0.968 ± 0.038 | 0.9589 ± 0.0063 | 0.945 ± 0.057 | 0.899 ± 0.03 | 0.894 ± 0.054 | 0.89 ± 0.025 | 0.875 ± 0.038 | 0.839 ± 0.036
8 | UniProt P30049 | 0.898 ± 0.044 | 0.918 ± 0.059 | 1.02 ± 0.11 | 1.03 ± 0.1 | 0.967 ± 0.11 | 1.04 ± 0.096 | 0.995 ± 0.11 | 1.04 ± 0.15
9 | RFC4 (UniProt P35249) | 0.984 ± 0.017 | 1.025 ± 0.0049 | 1.12 ± 0.045 | 1.1 ± 0.06 | 1.16 ± 0.064 | 1.19 ± 0.053 | 1.21 ± 0.047 | 1.19 ± 0.11
10 | UniProt P29350 and related entries | 0.97 ± 0.04 | 1.01 ± 0.043 | 0.936 ± 0.041 | 0.895 ± 0.049 | 0.868 ± 0.055 | 0.893 ± 0.059 | 0.871 ± 0.047 | 0.844 ± 0.078
11 | RECQL (UniProt P46063) | 1.05 ± 0.04 | 1.04 ± 0.028 | 0.9693 ± 0.0088 | 0.954 ± 0.036 | 0.951 ± 0.031 | 0.934 ± 0.012 | 0.937 ± 0.023 | 0.895 ± 0.047
12 | MLH1 (UniProt P40692) | 1.12 ± 0.11 | 1.19 ± 0.12 | 1.11 ± 0.11 | 1.14 ± 0.1 | 1.12 ± 0.13 | 1.13 ± 0.13 | 1.11 ± 0.1 | 1.14 ± 0.087
13 | UniProt P50213 and related entries | 0.968 ± 0.016 | 0.954 ± 0.011 | 0.923 ± 0.026 | 0.908 ± 0.029 | 0.909 ± 0.027 | 0.897 ± 0.023 | 0.87 ± 0.07 | 0.85 ± 0.052
14 | GSS (UniProt P48637) | 0.995 ± 0.015 | 0.988 ± 0.021 | 0.916 ± 0.031 | 0.912 ± 0.02 | 0.889 ± 0.037 | 0.888 ± 0.022 | 0.865 ± 0.053 | 0.844 ± 0.081
15 | RANGAP1 (UniProt P46060) | 0.902 ± 0.12 | 0.9 ± 0.1 | 0.888 ± 0.1 | 0.888 ± 0.11 | 0.905 ± 0.12 | 0.925 ± 0.11 | 0.943 ± 0.11 | 0.974 ± 0.15
16 | CORO1A (UniProt P31146) | 0.993 ± 0.018 | 1.08 ± 0.024 | 1.05 ± 0.034 | 1.02 ± 0.038 | 1.02 ± 0.038 | 1.05 ± 0.035 | 1.07 ± 0.071 | 1.04 ± 0.065
17 | MAT2A (UniProt P31153) | 0.994 ± 0.037 | 1.03 ± 0.067 | 0.914 ± 0.034 | 0.905 ± 0.068 | 0.892 ± 0.053 | 0.92 ± 0.045 | 0.891 ± 0.013 | 0.862 ± 0.039
18 | ZAP70 (UniProt P43403) | 1.02 ± 0.026 | 1.03 ± 0.067 | 0.932 ± 0.029 | 0.927 ± 0.032 | 0.908 ± 0.019 | 0.889 ± 0.018 | 0.875 ± 0.047 | 0.827 ± 0.05
19 | DNAJA1 (UniProt P31689) | 0.964 ± 0.075 | 1.02 ± 0.072 | 1.02 ± 0.1 | 1.04 ± 0.086 | 1.05 ± 0.096 | 1.07 ± 0.097 | 1.07 ± 0.1 | 1.03 ± 0.071
20 | GTF2E2 (UniProt P29084) | 0.969 ± 0.013 | 0.975 ± 0.063 | 1.02 ± 0.058 | 0.977 ± 0.09 | 0.971 ± 0.095 | 1.01 ± 0.087 | 1.03 ± 0.088 | 1.04 ± 0.08
21 | TXLNA (UniProt P40222) | 0.955 ± 0.021 | 0.9 ± 0.039 | 1.07 ± 0.064 | 1.07 ± 0.1 | 1.12 ± 0.12 | 1.2 ± 0.17 | 1.12 ± 0.21 | 1.37 ± 0.26
22 | IQGAP1 (UniProt P46940) | 0.9994 ± 0.0077 | 1.03 ± 0.025 | 0.933 ± 0.017 | 0.935 ± 0.03 | 0.931 ± 0.0097 | 0.932 ± 0.021 | 0.917 ± 0.026 | 0.895 ± 0.043
23 | ALDH9A1 (UniProt P49189) | 0.992 ± 0.02 | 1.02 ± 0.028 | 0.953 ± 0.016 | 0.955 ± 0.032 | 0.944 ± 0.036 | 0.951 ± 0.037 | 0.9227 ± 0.008 | 0.918 ± 0.034
24 | GDI1 (UniProt P31150) | 1.04 ± 0.056 | 1.01 ± 0.06 | 0.946 ± 0.032 | 0.947 ± 0.072 | 0.94 ± 0.059 | 0.909 ± 0.041 | 0.871 ± 0.051 | 0.863 ± 0.088
25 | UniProt P34897 and related entries | 1.05 ± 0.04 | 1.04 ± 0.061 | 0.958 ± 0.058 | 0.964 ± 0.059 | 0.981 ± 0.05 | 0.935 ± 0.06 | 0.919 ± 0.029 | 0.8893 ± 0.0077
26 | UniProt P32321 and related entries | 0.901 ± 0.02 | 0.941 ± 0.064 | 0.899 ± 0.033 | 0.897 ± 0.024 | 0.879 ± 0.012 | 0.908 ± 0.048 | 0.869 ± 0.033 | 0.885 ± 0.056
27 | RANBP2 (UniProt P49792) | 1.02 ± 0.013 | 1.06 ± 0.021 | 1.06 ± 0.024 | 1.08 ± 0.057 | 1.14 ± 0.073 | 1.18 ± 0.091 | 1.25 ± 0.13 | 1.26 ± 0.12
28 | ECHS1 (UniProt P30084) | 0.937 ± 0.084 | 0.951 ± 0.07 | 0.928 ± 0.075 | 0.902 ± 0.06 | 0.91 ± 0.092 | 0.919 ± 0.057 | 0.913 ± 0.087 | 0.899 ± 0.067
29 | HTT (UniProt P42858) | 0.975 ± 0.014 | 0.988 ± 0.039 | 1.02 ± 0.058 | 1.01 ± 0.033 | 0.951 ± 0.018 | 0.97 ± 0.064 | 0.972 ± 0.064 | 0.939 ± 0.05
30 | MCM4 (UniProt P33991) | 0.995 ± 0.02 | 1.04 ± 0.047 | 1 ± 0.061 | 1 ± 0.084 | 1.01 ± 0.096 | 1.01 ± 0.11 | 1.01 ± 0.099 | 0.962 ± 0.081

Laid out differently: entries from further up
Row,Target,NP40-soluble protein abundance (concentration: 0.1mM),NP40-soluble protein abundance (concentration: 0.5mM),NP40-soluble protein abundance (concentration: 1mM),NP40-soluble protein abundance (concentration: 2mM),NP40-soluble protein abundance (concentration: 4mM),NP40-soluble protein abundance (concentration: 6mM),NP40-soluble protein abundance (concentration: 8mM),NP40-soluble protein abundance (concentration: 10mM)
21,TXLNA (UniProt P40222),0.955 ± 0.021,0.9 ± 0.039,1.07 ± 0.064,1.07 ± 0.1,1.12 ± 0.12,1.2 ± 0.17,1.12 ± 0.21,1.37 ± 0.26
22,IQGAP1 (UniProt P46940),0.9994 ± 0.0077,1.03 ± 0.025,0.933 ± 0.017,0.935 ± 0.03,0.931 ± 0.0097,0.932 ± 0.021,0.917 ± 0.026,0.895 ± 0.043
